The target in assay [1] is 15N-labeled β3MP (mono-Y747-phosphorylated integrin β3 cytoplasmic tail) (human) (UniProt P05106). Briefly: NMR titration; 1H-15N HSQC chemical shift titration; unlabeled VpepA titrated into 15N-labeled β3CT; water, 25°C, pH 6.1, β3 30-100 µM; both purified.
Assay [2] has as its target GST-β3 (integrin β3 cytoplasmic tail coupled to glutathione S-transferase) (human) (UniProt P05106). The experiment in a line: transferred NOE (trNOESY) NMR; peptide mixed with GST-β3; 50 mM NaCl, 25 mM Na-phosphate, pH 6.1, 25°C; peptide to protein ratio 50 to 1, peptide 1 mM; both purified.

Protein sequences, listed by entry. Tags and fused reporters are not part of them. Residues count along the entry.
UniProt P05106, residues 742-788: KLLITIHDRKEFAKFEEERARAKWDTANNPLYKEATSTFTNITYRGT

These are yes or no findings as the source states them, for the method shown. Some binding calls cover weakened binding; strength is not graded here.

For the molecule LRTVKRANGGELKTGYLSIVMDPDELPLDE [VpepA, synthetic peptide of the thirty membrane proximal residues of the VEGFR2 cytoplasmic domain], the binding result in assay [1] is given as “binds weakly”.

RANGGELKTGYLSIVMDPD [VpepC, synthetic peptide of the membrane proximal region of VEGFR2]: in assay [2], the binding result is “binds weakly”.

For the molecule LRTVKRANGGELKTGYLSIV [VpepB, synthetic peptide of the membrane proximal region of VEGFR2], the binding result in assay [2] is reported as “binds weakly”.

Values taken from PMC3281915, “Integrin β3 Crosstalk with VEGFR Accommodating Tyrosine Phosphorylation as a Regulatory Switch” (PLoS ONE, 2012).
